The list shows only some results of the screen, not a fair sample: it is rich in T/C values a quarter to a half above the control, in often repeated tests (any T/C) and in doses without a T/C. Other doses and runs of a compound stand elsewhere. T/C: endpoint of the treated group in % of that of the vehicle group. Some entries give survivors of the animals treated and no T/C: the source files T/C as zero there, which appears to mark a toxic dose or a test without result, not a measured value. Some doses without a T/C left all or most animals alive at the check, yet need not have been tolerated: the source hardly ever lists a survival T/C far under the control, and the zero likely stands for such cases as well. Survivors were counted at the toxicity check, usually on the fifth day, unless a day is given; later deaths do not show. Schedules are NCI's codes, read here as Q, the interval in days (D) or hours (H), X, the number of doses. Some schedules carry Z or #; the key to these is not given. Where survival is the endpoint, the PubChem record calls one and a half times the control and up active, and a quarter to a half above the control has no call in these data; cut-offs in other NCI protocols can differ. Some entries hold several experiments; the values are given in rising order. Marks such as (2×) count equal records among those shown. Some T/C values are followed by the survivors on the day toxicity was checked, most often the fifth; without a count, all were alive then.
Tested on: L1210 leukemia ip in BDF1 mice, survival T/C
Assay: NCI In Vivo Anticancer Drug Screen. Data for tumor model L1210 Leukemia (intraperitoneal) in B6D2F1 (BDF1) mice
Conditions: higher T/C = longer survival
[1] = T/C endpoint: mean survival time, dose: 30.0 mg/kg/injection, schedule: Q01DX Z (ip), vehicle: carboxymethylcellulose (CMC)
[2] = T/C endpoint: mean survival time, dose: 191.2 mg/kg/injection, schedule: Q02DX010 (ip), vehicle: carboxymethylcellulose (CMC)
[3] = T/C endpoint: mean survival time, dose: 400.0 mg/kg/injection, schedule: Q04DX003 (ip), vehicle: saline with Tween-80
[4] = T/C endpoint: mean survival time, dose: 300.0 mg/kg/injection, schedule: Q01DX001 (ip), vehicle: saline
[5] = T/C endpoint: mean survival time, dose: 100.0 mg/kg/injection, schedule: Q04DX003 (ip), vehicle: saline with Tween-80
[6] = T/C endpoint: mean survival time, dose: 50.0 mg/kg/injection, schedule: Q04DX003 (ip), vehicle: saline with Tween-80
[7] = T/C endpoint: mean survival time, dose: 200.0 mg/kg/injection, schedule: Q04DX002 (ip), vehicle: saline with Tween-80

## C[C@@H]1C[C@@H]([C@H](O)CC2CC(=O)NC(=O)C2)C(=O)[C@@H](C)C1
T/C endpoint: mean survival time, dose: 5.0 mg/kg/injection, schedule: Q01DX009 (ip), vehicle: saline
  T/C: 94, 97, 101, 104 % of control
T/C endpoint: mean survival time, dose: 10.0 mg/kg/injection, schedule: Q01DX009 (ip), vehicle: saline
  T/C: 103, 107, 108, 109 % of control
T/C endpoint: mean survival time, dose: 20.0 mg/kg/injection, schedule: Q01DX009 (ip), vehicle: saline
  T/C: 112, 113, 117, 123 % of control
T/C endpoint: mean survival time, dose: 24.0 mg/kg/injection, schedule: Q01DX015 (ip), vehicle: saline
  T/C: 145 % of control
T/C endpoint: mean survival time, dose: 30.0 mg/kg/injection, schedule: Q01DX009 (ip), vehicle: saline
  T/C: 134 % of control
[1]
  T/C: 133 and 135 % of control
T/C endpoint: mean survival time, dose: 36.0 mg/kg/injection, schedule: Q01DX015 (ip), vehicle: saline
  T/C: 137 % of control
T/C endpoint: mean survival time, dose: 36.5 mg/kg/injection, schedule: Q02DX010 (ip), vehicle: carboxymethylcellulose (CMC)
  T/C: 113, 114, 118, 122 % of control
T/C endpoint: mean survival time, dose: 40.0 mg/kg/injection, schedule: Q01DX009 (ip), vehicle: acetone
  T/C: 138 % of control
T/C endpoint: mean survival time, dose: 40.0 mg/kg/injection, schedule: Q01DX009 (ip), vehicle: saline
  T/C: 123, 130, 136 % of control (2×)
T/C endpoint: mean survival time, dose: 50.0 mg/kg/injection, schedule: Q01DX009 (ip), vehicle: saline with Tween-80
  T/C: 140 % of control [4 of 6 alive]
T/C endpoint: mean survival time, dose: 54.0 mg/kg/injection, schedule: Q01DX015 (ip), vehicle: saline
  T/C: 125 % of control
T/C endpoint: mean survival time, dose: 57.0 mg/kg/injection, schedule: Q02DX010 (ip), vehicle: carboxymethylcellulose (CMC)
  T/C: 111, 117, 131, 143 % of control
T/C endpoint: mean survival time, dose: 57.0 mg/kg/injection, schedule: Q02DX010 (ip), vehicle: other
  T/C: 145 % of control
T/C endpoint: mean survival time, dose: 60.0 mg/kg/injection, schedule: Q01DX009 (ip), vehicle: Klucel (hydroxypropylcellulose) (HPC)
  T/C: 126 % of control
T/C endpoint: mean survival time, dose: 60.0 mg/kg/injection, schedule: Q01DX009 (ip), vehicle: saline with Tween-80
  T/C: 129 % of control
T/C endpoint: mean survival time, dose: 80.0 mg/kg/injection, schedule: Q01DX009 (ip), vehicle: acetone
  survivor count: 5 of 6
T/C endpoint: mean survival time, dose: 84.0 mg/kg/injection, schedule: Q02DX008 (ip), vehicle: saline
  T/C: 129 % of control
T/C endpoint: mean survival time, dose: 85.0 mg/kg/injection, schedule: Q02DX010 (ip), vehicle: carboxymethylcellulose (CMC)
  T/C: 121, 132, 137, 141 % of control
T/C endpoint: mean survival time, dose: 120.0 mg/kg/injection, schedule: Q04DX003 (ip), vehicle: Klucel (hydroxypropylcellulose) (HPC)
  T/C: 127 % of control
T/C endpoint: mean survival time, dose: 127.5 mg/kg/injection, schedule: Q02DX010 (ip), vehicle: carboxymethylcellulose (CMC)
  T/C: 65, 82, 107, 128 % of control
T/C endpoint: mean survival time, dose: 135.0 mg/kg/injection, schedule: Q01DX009 (ip), vehicle: saline
  survivor count: 4 of 6
T/C endpoint: mean survival time, dose: 160.0 mg/kg/injection, schedule: Q01DX009 (ip), vehicle: acetone
  survivor count: 0 of 6
[2]
  T/C: 65, 73, 104 % of control
  survivor count: 6 of 6
T/C endpoint: mean survival time, dose: 200.0 mg/kg/injection, schedule: Q01DX009 (ip), vehicle: saline with Tween-80
  survivor count: 1 of 6
T/C endpoint: mean survival time, dose: 200.0 mg/kg/injection, schedule: Q01DX009 (ip), vehicle: saline
  survivor count: 0 of 6
T/C endpoint: mean survival time, dose: 270.0 mg/kg/injection, schedule: Q01DX001 (ip), vehicle: alkali diluted with saline
  survivor count: 5 of 10
T/C endpoint: mean survival time, dose: 270.0 mg/kg/injection, schedule: Q04DX003 (ip), vehicle: saline
  survivor count: 5 of 6
T/C endpoint: mean survival time, dose: 320.0 mg/kg/injection, schedule: Q## X032 (ip), vehicle: saline
  survivor count: 1 of 10
[3]
  survivor count: 0 of 6
T/C endpoint: mean survival time, dose: 405.0 mg/kg/injection, schedule: Q01DX001 (ip), vehicle: alkali diluted with saline
  survivor count: 2 of 10
T/C endpoint: mean survival time, dose: 410.0 mg/kg/injection, schedule: Q04DX003 (ip), vehicle: saline
  survivor count: 0 of 6
T/C endpoint: mean survival time, dose: 615.0 mg/kg/injection, schedule: Q04DX003 (ip), vehicle: saline
  survivor count: 0 of 6
T/C endpoint: median survival time, dose: 400.0 mg/kg/injection, schedule: Q04DX003 (ip), vehicle: alkali diluted with saline
  survivor count: 3 of 8

## Oc1ccc(CNCc2ccccc2)c2cccnc12
T/C endpoint: mean survival time, dose: 150.0 mg/kg/injection, schedule: Q01DX001 (ip), vehicle: saline
  survivor count: 5 of 6
[4]
  survivor count: 0 of 6

## Cc1ccc2c(c1)CCCN2C=O
[3]
  survivor count: 2 of 6

## CCOC(=O)Nc1ccccc1C
T/C endpoint: mean survival time, dose: 500.0 mg/kg/injection, schedule: Q01DX Z (ip), vehicle: methylcellulose (MC)
  survivor count: 3 of 6

## Cc1cc(Br)c(N(C=O)N=O)c(Br)c1
[4]
  survivor count: 1 of 6

## CN1CCC(SC(=O)C(O)(c2ccccc2)c2ccccc2)CC1
[4]
  survivor count: 1 of 6

## N#Cc1c(F)c(F)c(C#N)c(F)c1F
T/C endpoint: mean survival time, dose: 20.0 mg/kg/injection, schedule: Q01DX001 (ip), vehicle: saline
  survivor count: 1 of 4
T/C endpoint: mean survival time, dose: 40.0 mg/kg/injection, schedule: Q01DX001 (ip), vehicle: saline
  survivor count: 1 of 4
T/C endpoint: mean survival time, dose: 80.0 mg/kg/injection, schedule: Q01DX001 (ip), vehicle: saline
  survivor count: 0 of 4

## NC1=CC(=O)c2ccccc2C1=O
T/C endpoint: mean survival time, dose: 31.2 mg/kg/injection, schedule: Q01DX Z (ip), vehicle: other
  survivor count: 3 of 6
T/C endpoint: mean survival time, dose: 125.0 mg/kg/injection, schedule: Q01DX Z (ip), vehicle: other
  survivor count: 2 of 6
[3]
  survivor count: 0 of 6

## C=C(C(=O)OC)C(C(=O)OC)=C(N1CCCCC1)N1CCCCC1
T/C endpoint: mean survival time, dose: 400.0 mg/kg/injection, schedule: Q04DX002 (ip), vehicle: saline with Tween-80
  survivor count: 0 of 3

## O=C(Nc1ccc(NC(=O)c2ccc(C3=NCCCN3)cc2)cc1)c1ccc(C2=NCCCN2)cc1
[1]
  T/C: 141 % of control
T/C endpoint: mean survival time, dose: 60.0 mg/kg/injection, schedule: Q01DX Z (ip), vehicle: carboxymethylcellulose (CMC)
  survivor count: 0 of 6
T/C endpoint: mean survival time, dose: 120.0 mg/kg/injection, schedule: Q01DX Z (ip), vehicle: carboxymethylcellulose (CMC)
  survivor count: 0 of 6

## CCn1cnc2c(SC3CCCC3)ncnc21
T/C endpoint: mean survival time, dose: 250.0 mg/kg/injection, schedule: Q01DX015 (ip), vehicle: carboxymethylcellulose (CMC)
  T/C: 142 % of control
T/C endpoint: mean survival time, dose: 250.0 mg/kg/injection, schedule: Q01DX Z (ip), vehicle: carboxymethylcellulose (CMC)
  T/C: 127 % of control
T/C endpoint: mean survival time, dose: 375.0 mg/kg/injection, schedule: Q01DX015 (ip), vehicle: carboxymethylcellulose (CMC)
  T/C: 141 % of control
T/C endpoint: mean survival time, dose: 500.0 mg/kg/injection, schedule: Q01DX015 (ip), vehicle: carboxymethylcellulose (CMC)
  T/C: 145 % of control [9 of 10 alive]

## Cc1ccc(Cl)cc1NC(=O)Nc1ccccc1F
[5]
  survivor count: 6 of 6
T/C endpoint: mean survival time, dose: 200.0 mg/kg/injection, schedule: Q04DX003 (ip), vehicle: saline with Tween-80
  survivor count: 6 of 6
[3]
  survivor count: 6 of 6

## O=NN(CCCl)C(=O)N[C@H]1CCCC[C@H]1O
T/C endpoint: mean survival time, dose: 90.0 mg/kg/injection, schedule: Q01DX001 (ip), vehicle: saline with Tween-80
  survivor count: 10 of 10
T/C endpoint: mean survival time, dose: 133.0 mg/kg/injection, schedule: Q01DX001 (ip), vehicle: saline with Tween-80
  survivor count: 10 of 10
T/C endpoint: mean survival time, dose: 200.0 mg/kg/injection, schedule: Q01DX001 (ip), vehicle: saline with Tween-80
  survivor count: 10 of 10

## CNC(=O)N(C(C)C)C1CCCCC1
T/C endpoint: mean survival time, dose: 400.0 mg/kg/injection, schedule: Q04DX003 (ip), vehicle: other
  survivor count: 2 of 6

## N=C(N)c1cccc(NC(=O)c2ccc(C(=O)Nc3cccc(C(=N)N)c3)c([N+](=O)[O-])c2)c1
T/C endpoint: mean survival time, dose: 32.0 mg/kg/injection, schedule: Q01DX015 (ip), vehicle: water
  survivor count: 0 of 6
T/C endpoint: mean survival time, dose: 64.0 mg/kg/injection, schedule: Q01DX015 (ip), vehicle: water
  survivor count: 0 of 6

## CC(C)c1nc2c(n1Cc1ccccc1)C=C(C(=O)c1ccccc1)S(=O)(=O)C(C(=O)c1ccccc1)=C2
[6]
  T/C: 86 and 95 % of control (2×)
  survivor count: 3 of 3
T/C endpoint: mean survival time, dose: 100.0 mg/kg/injection, schedule: Q04DX002 (ip), vehicle: Klucel (hydroxypropylcellulose) (HPC)
  survivor count: 3 of 3
T/C endpoint: mean survival time, dose: 100.0 mg/kg/injection, schedule: Q04DX002 (ip), vehicle: saline with Tween-80
  T/C: 93, 95 (2×), 104 % of control
[5]
  T/C: 93, 95, 98 % of control
  survivor count: 3 of 3
[7]
  T/C: 88, 89, 100 % of control
  survivor count: 3 of 3
